B1: C19orf10 chromosome 19 open reading frame 10: HLA class II ligandome-derived tumor-associated antigen (LiTAA), source protein of the peptides listed under it (protein, UniProt Q969H8 32-173, looked up)
Myeloid-derived growth factor: VSEPTTVAFDVRPGGVVHSFSHNVGPGDKYTCMFTYASQGGTNEQWQMSLGTSEDHQHFTCTIWRPQGKSYLYFTQFKAEVRGAEIEYAMAYSKAAFERESDVPLKTEEFEVTKTAVAHRPGAFKAELSKLVIVAKASRTEL
B2: CLSTN1 calsyntenin 1: HLA class II ligandome-derived tumor-associated antigen (LiTAA), source protein of the peptides listed under it (protein, UniProt O94985 29-981, looked up)
Calsyntenin-1: ARVNKHKPWLEPTYHGIVTENDNTVLLDPPLIALDKDAPLRFAESFEVTVTKEGEICGFKIHGQNVPFDAVVVDKSTGEGVIRSKEKLDCELQKDYSFTIQAYDCGKGPDGTNVKKSHKATVHIQVNDVNEYAPVFKEKSYKATVIEGKQYDSILRVEAVDADCSPQFSQICSYEIITPDVPFTVDKDGYIKNTEKLNYGKEHQYKLTVTAYDCGKKRATEDVLVKISIKPTCTPGWQGWNNRIEYEPGTGALAVFPNIHLETCDEPVASVQATVELETSHIGKGCDRDTYSEKSLHRLCGAAAGTAELLPSPSGSLNWTMGLPTDNGHDSDQVFEFNGTQAVRIPDGVVSVSPKEPFTISVWMRHGPFGRKKETILCSSDKTDMNRHHYSLYVHGCRLIFLFRQDPSEEKKYRPAEFHWKLNQVCDEEWHHYVLNVEFPSVTLYVDGTSHEPFSVTEDYPLHPSKIETQLVVGACWQEFSGVENDNETEPVTVASAGGDLHMTQFFRGNLAGLTLRSGKLADKKVIDCLYTCKEGLDLQVLEDSGRGVQIQAHPSQLVLTLEGEDLGELDKAMQHISYLNSRQFPTPGIRRLKITSTIKCFNEATCISVPPVDGYVMVLQPEEPKISLSGVHHFARAASEFESSEGVFLFPELRIISTITREVEPEGDGAEDPTVQESLVSEEIVHDLDTCEVTVEGEELNHEQESLEVDMARLQQKGIEVSSSELGMTFTGVDTMASYEEVLHLLRYRNWHARSLLDRKFKLICSELNGRYISNEFKVEVNVIHTANPMEHANHMAAQPQFVHPEHRSFVDLSGHNLANPHPFAVVPSTATVVIVVCVSFLVFMIILGVFRIRAAHRRTMRDQDTGKENEMDWDDSALTITVNPMETYEDQHSSEEEEEEEEEEESEDGEEEDDITSAESESSEEEEGEQGDPQNATRQQQLEWDDSTLSY
B3: HSP90B2P heat shock protein 90 kDa beta (Grp94), member 2, pseudogene: HLA class II ligandome-derived tumor-associated antigen (LiTAA), source protein of the peptides listed under it (protein, UniProt Q58FF3 1-399, looked up)
Putative endoplasmin-like …: MAETIQEVEDEYKAFCKSFSKESDDPVACIHFTAEGEVTFKSILFVPTFVPRGLFDEYGSKKSDYIKLYVRCVFITDDFRDTMPKNLNFVKGVVDSGGLSLNVSCETLQQHKLLKVIRKKLVHKTLDMIKKIADEKYNDTFWKEFGTNIKLGVIEDHSNRTCLAKLLRFQSSHHPADITSLHQDVERMKEKQDKICLMAGGYEVIYLTEPVVEYCIQALPEFDGKRFQNVAKEGVKFDDSEKTKESHEAVEKEFEPLPNWVKDKAIKDKIEKAMVSQCLTESLCALVASQYGWSGNMERIMKAQAYQTGKGISTNYHASRKKTFEINPRHPLIRDMLRRIKEDEDDKTVLDLAVVEEPDEEPEETAEDKEQDKDKEMDVGTDEEKQETAKESTAEKDEL
B4: LAIR1 leukocyte-associated immunoglobulin-like receptor 1: HLA class II ligandome-derived tumor-associated antigen (LiTAA), source protein of the peptides listed under it (protein, UniProt Q6GTX8 22-287, looked up)
Leukocyte-associated …: QEEDLPRPSISAEPGTVIPLGSHVTFVCRGPVGVQTFRLERDSRSTYNDTEDVSQASPSESEARFRIDSVREGNAGLYRCIYYKPPKWSEQSDYLELLVKESSGGPDSPDTEPGSSAGPTQRPSDNSHNEHAPASQGLKAEHLYILIGVSVVFLFCLLLLVLFCLHRQNQIKQGPPRSKDEEQKPQQRPDLAVDVLERTADKATVNGLPEKDRETDTSALAAGSSQEVTYAQLDHWALTQRTARAVSPQSTKPMAESITYAAVARH
B5: ARRDC1 arrestin domain containing 1: HLA class II ligandome-derived tumor-associated antigen (LiTAA), source protein of the peptides listed under it (protein, UniProt Q8N5I2 1-433, looked up)
Arrestin domain-containing …: MGRVQLFEISLSHGRVVYSPGEPLAGTVRVRLGAPLPFRAIRVTCIGSCGVSNKANDTAWVVEEGYFNSSLSLADKGSLPAGEHSFPFQFLLPATAPTSFEGPFGKIVHQVRAAIHTPRFSKDHKCSLVFYILSPLNLNSIPDIEQPNVASATKKFSYKLVKTGSVVLTASTDLRGYVVGQALQLHADVENQSGKDTSPVVASLLQKVSYKAKRWIHDVRTIAEVEGAGVKAWRRAQWHEQILVPALPQSALPGCSLIHIDYYLQVSLKAPEATVTLPVFIGNIAVNHAPVSPRPGLGLPPGAPPLVVPSAPPQEEAEAEAAAGGPHFLDPVFLSTKSHSQRQPLLATLSSVPGAPEPCPQDGSPASHPLHPPLCISTGATVPYFAEGSGGPVPTTSTLILPPEYSSWGYPYEAPPSYEQSCGGVEPSLTPES
B6: SPN sialophorin: HLA class II ligandome-derived tumor-associated antigen (LiTAA), source protein of the peptides listed under it (protein, UniProt P16150 20-400, looked up)
Leukosialin: STTAVQTPTSGEPLVSTSEPLSSKMYTTSITSDPKADSTGDQTSALPPSTSINEGSPLWTSIGASTGSPLPEPTTYQEVSIKMSSVPQETPHATSHPAVPITANSLGSHTVTGGTITTNSPETSSRTSGAPVTTAASSLETSRGTSGPPLTMATVSLETSKGTSGPPVTMATDSLETSTGTTGPPVTMTTGSLEPSSGASGPQVSSVKLSTMMSPTTSTNASTVPFRNPDENSRGMLPVAVLVALLAVIVLVALLLLWRRRQKRRTGALVLSRGGKRNGVVDAWAGPAQVPEEGAVTVTVGGSGGDKGSGFPDGEGSSRRPTLTTFFGRRKSRQGSLAMEELKSGSGPSLKGEEEPLVASEDGAVDAPAPDEPEGGDGAAP
B7: GALNT7 UDP-N-acetyl-alpha-D-galactosamine:polypeptide N-acetylgalactosaminyltransferase 7 (GalNAc-T7): HLA class II ligandome-derived tumor-associated antigen (LiTAA), source protein of the peptides … (protein, UniProt Q86SF2 1-657, looked up)
N-acetylgalactosaminyltransfer …: MRLKIGFILRSLLVVGSFLGLVVLWSSLTPRPDDPSPLSRMREDRDVNDPMPNRGGNGLAPGEDRFKPVVPWPHVEGVEVDLESIRRINKAKNEQEHHAGGDSQKDIMQRQYLTFKPQTFTYHDPVLRPGILGNFEPKEPEPPGVVGGPGEKAKPLVLGPEFKQAIQASIKEFGFNMVASDMISLDRSVNDLRQEECKYWHYDENLLTSSVVIVFHNEGWSTLMRTVHSVIKRTPRKYLAEIVLIDDFSNKEHLKEKLDEYIKLWNGLVKVFRNERREGLIQARSIGAQKAKLGQVLIYLDAHCEVAVNWYAPLVAPISKDRTICTVPLIDVINGNTYEIIPQGGGDEDGYARGAWDWSMLWKRVPLTPQEKRLRKTKTEPYRSPAMAGGLFAIEREFFFELGLYDPGLQIWGGENFEISYKIWQCGGKLLFVPCSRVGHIYRLEGWQGNPPPIYVGSSPTLKNYVRVVEVWWDEYKDYFYASRPESQALPYGDISELKKFREDHNCKSFKWFMEEIAYDITSHYPLPPKNVDWGEIRGFETAYCIDSMGKTNGGFVELGPCHRMGGNQLFRINEANQLMQYDQCLTKGADGSKVMITHCNLNEFKEWQYFKNLHRFTHIPSGKCLDRSEVLHQVFISNCDSSKTTQKWEMNNIHSV
B8: PLIN3 perilipin 3: HLA class II ligandome-derived tumor-associated antigen (LiTAA), source protein of the peptides listed under it (protein, UniProt O60664 2-434, looked up)
Perilipin-3: SADGAEADGSTQVTVEEPVQQPSVVDRVASMPLISSTCDMVSAAYASTKESYPHIKTVCDAAEKGVRTLTAAAVSGAQPILSKLEPQIASASEYAHRGLDKLEENLPILQQPTEKVLADTKELVSSKVSGAQEMVSSAKDTVATQLSEAVDATRGAVQSGVDKTKSVVTGGVQSVMGSRLGQMVLSGVDTVLGKSEEWADNHLPLTDAELARIATSLDGFDVASVQQQRQEQSYFVRLGSLSERLRQHAYEHSLGKLRATKQRAQEALLQLSQVLSLMETVKQGVDQKLVEGQEKLHQMWLSWNQKQLQGPEKEPPKPEQVESRALTMFRDIAQQLQATCTSLGSSIQGLPTNVKDQVQQARRQVEDLQATFSSIHSFQDLSSSILAQSRERVASAREALDHMVEYVAQNTPVTWLVGPFAPGITEKAPEEKK
B9: ERGIC1 endoplasmic reticulum-golgi intermediate compartment (ERGIC) 1: HLA class II ligandome-derived tumor-associated antigen (LiTAA), source protein of the peptides listed under it (protein, UniProt Q969X5 1-290, looked up)
Endoplasmic reticulum-Golgi …: MPFDFRRFDIYRKVPKDLTQPTYTGAIISICCCLFILFLFLSELTGFITTEVVNELYVDDPDKDSGGKIDVSLNISLPNLHCELVGLDIQDEMGRHEVGHIDNSMKIPLNNGAGCRFEGQFSINKVPGNFHVSTHSATAQPQNPDMTHVIHKLSFGDTLQVQNIHGAFNALGGADRLTSNPLASHDYILKIVPTVYEDKSGKQRYSYQYTVANKEYVAYSHTGRIIPAIWFRYDLSPITVKYTERRQPLYRFITTICAIIGGTFTVAGILDSCIFTASEAWKKIQLGKMH

tested on: primary AML samples; assay: HLA class II ligandome analysis (LC-MS/MS) of primary AML samples; parameters: species or system human; conditions: HLA class II ligandome, AML patients n=12

First: B1
Second: B2
The “Number of positive AMLs” value of the first is higher: 5 for the first, 4 for the second.

B3 and B4 are the same in “Number of positive AMLs” value: 3 for the first, 3 for the second.

Going from B5 to B6, the “Number of positive AMLs” value rises from 3 to 4.

Compared with B7, B8 is higher in “Number of positive AMLs” value: 3 for the first, 4 for the second.

B9 was tested, and the “Number of positive AMLs” value was 3.

same assay, conditions: source protein level, HLA class II, AML patients n=12

First: B1
Second: B2
The “rep. frequency in AMLs” value of the first is higher: 41.7% for the first, 33.3% for the second.

B3 and B4 are the same in “rep. frequency in AMLs” value: 25.0% for the first, 25.0% for the second.

First: B5
Second: B6
The “rep. frequency in AMLs” value of the first is lower: 25.0% for the first, 33.3% for the second.

Going from B7 to B8, the “rep. frequency in AMLs” value rises from 25.0% to 33.3%.

With B9 the “rep. frequency in AMLs” value was 25.0%.
